These are yes or no findings as the source states them, for the method shown. In cells and extracts the contact can be indirect. Some results given as binding are weak or reduced against the parent protein; the word gives no strength.
Molecular target: Bub3 (mouse (endogenous in mouse oocytes)) (UniProt Q9WVA3)
Experiment: co-IP; mouse oocyte lysates incubated with anti-Bub3 antibody or IgG, then protein G beads; ProFound Mammalian Co-Immunoprecipitation Kit; eluates blotted with anti-Zfp207 and anti-Bub3

The chains behind the UniProt entries cited, without tags or fusion partners.
UniProt Q9WVA3: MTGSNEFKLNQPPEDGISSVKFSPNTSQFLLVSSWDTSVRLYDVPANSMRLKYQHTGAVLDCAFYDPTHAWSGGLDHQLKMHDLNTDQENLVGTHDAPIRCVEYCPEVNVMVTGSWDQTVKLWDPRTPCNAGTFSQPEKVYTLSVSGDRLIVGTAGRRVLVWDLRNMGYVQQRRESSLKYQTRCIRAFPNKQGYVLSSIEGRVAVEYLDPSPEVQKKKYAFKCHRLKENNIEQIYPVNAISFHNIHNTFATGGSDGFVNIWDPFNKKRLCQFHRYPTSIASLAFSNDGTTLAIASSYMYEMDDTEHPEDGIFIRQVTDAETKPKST
UniProt Q9JMD0: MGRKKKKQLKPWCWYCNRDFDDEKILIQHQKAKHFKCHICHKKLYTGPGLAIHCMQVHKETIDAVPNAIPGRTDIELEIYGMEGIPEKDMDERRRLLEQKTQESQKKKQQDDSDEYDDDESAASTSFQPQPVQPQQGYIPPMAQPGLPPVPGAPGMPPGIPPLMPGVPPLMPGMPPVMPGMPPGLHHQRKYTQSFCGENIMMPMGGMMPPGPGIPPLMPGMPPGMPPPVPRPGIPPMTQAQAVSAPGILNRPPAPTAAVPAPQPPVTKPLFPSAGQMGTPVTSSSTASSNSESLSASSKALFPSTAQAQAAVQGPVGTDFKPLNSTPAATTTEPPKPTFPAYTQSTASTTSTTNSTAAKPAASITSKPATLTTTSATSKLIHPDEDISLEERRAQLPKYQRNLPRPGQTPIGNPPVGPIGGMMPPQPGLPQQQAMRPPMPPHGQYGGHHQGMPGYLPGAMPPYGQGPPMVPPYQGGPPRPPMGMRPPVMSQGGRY

- binding: binds
Substance: Zfp207 (from UniProt Q9JMD0 1-495)

Reference: PMC5058671
